{
  "source": "paper PMC11063404",
  "about": "“Classical and novel properties of Holliday junction resolvase SynRuvC from Synechocystis sp. PCC6803”",
  "key": {"[1]": {"molecular_target": "T1, SynRuvC (FL, WT) (Synechocystis sp. PCC6803) (UniProt Q55506)", "T1 sequence (looked up)": "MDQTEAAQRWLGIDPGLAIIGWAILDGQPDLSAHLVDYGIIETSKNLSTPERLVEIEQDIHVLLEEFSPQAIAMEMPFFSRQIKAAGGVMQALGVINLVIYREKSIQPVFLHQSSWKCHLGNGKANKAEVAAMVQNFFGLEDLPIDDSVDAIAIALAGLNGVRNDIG", "assay": "EMSA", "conditions": "EMSA: 50 nM 5'-FAM DNA, 0-2000 nM protein, 20 mM HEPES pH 7.5, 50 mM NaCl, 1 mM DTT, 10% DMSO, 1% glycerol, no metal listed, 37 C 60 min, 5% native PAGE in 1x TAE, recombinant protein, residues 1-167, protein details: His-SUMO N-terminal, removed"}, "[2]": {"molecular_target": "T2, SynRuvC 1-144 (Synechocystis sp. PCC6803) (UniProt Q55506)", "T2 sequence (looked up)": "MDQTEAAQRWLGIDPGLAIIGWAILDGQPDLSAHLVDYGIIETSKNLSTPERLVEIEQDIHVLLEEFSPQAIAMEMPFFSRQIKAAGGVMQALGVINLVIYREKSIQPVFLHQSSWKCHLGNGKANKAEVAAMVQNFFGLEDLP", "assay": "EMSA", "conditions": "complex migration slightly altered, deletion said to hinder substrate binding; EMSA: 50 nM 5'-FAM DNA, 0-2000 nM protein, 20 mM HEPES pH 7.5, 50 mM NaCl, 1 mM DTT, 10% DMSO, 1% glycerol, no metal listed, 37 C 60 min; 5% native PAGE in 1x TAE; recombinant protein; residues 1-144; protein details: His-SUMO N-terminal, removed (purified as WT); label: 5'-FAM on one strand; folded or branched DNA"}, "[3]": {"conditions": "label: 5'-FAM on one strand, folded or branched DNA"}},
  "note": "For part of these data: The comparison behind a weaker result is the experiment's own reference, which may not be listed here. Protein sequences can lack the tags named with them. For part of these data: The exact form of at least one protein or probe is not confirmed. For part of these data: At least one verdict was read from the data and is not stated in words by the source.",
  "data": [
    {"sequence": "GCAATTCGATCGTTGACATCTCGCGTGCTCGGTCAATCGGCAGATGCGGAGTGAAGTTCCAACGTTCGGC / GCCGAACGTTGGAACTTCACTCCGCATCTGCCGAT / GACCGAGCACGCGAGATGTCAACGATCGAATTGC [gapped duplex]", "values": [
      {"measurement": "binding result", "setting": "[1]; label: 5'-FAM on one strand", "value": "binds"}
    ]},
    {"sequence": "GCAATTCGATCGTTGACATCTCGCGTGCTCGGTCAATCGGCAGATGCGGAGTGAAGTTCCAACGTTCGGC / CCTGCAGGATGGTAGGACGGCCTCGCAATCCCGATTGACCGAGCACGCGAGATGTCAACGATCGAATTGC / GCCGAACGTTGGAACTTCACTCCGCATCTGCCGATTGACCGAGTGGCGTGTTTCTGGTGGTTCCTAGGTC / GACCTAGGAACCACCAGAAACACGCCACTCGGTCAATCGGGATTGCGAGGCCGTCCTACCATCCTGCAGG [4Jh]", "values": [
      {"measurement": "binding result", "setting": "[1]; [3]", "value": "binds"},
      {"measurement": "binding result", "setting": "[2]", "value": "binds more weakly"}
    ]},
    {"sequence": "GCAATTCGATCGTTGACATCTCGCGTGCTCGGTCAATCGGCAGATGCGGAGTGAAGTTCCAACGTTCGGC / GCCGAACGTTGGAACTTCACTCCGCATCTGCCGAT [5'-overhang (35 nt)]", "values": [
      {"measurement": "binding result", "setting": "[1]; substrates with 5'-single strands preferred over double strands, label: 5'-FAM on one strand", "value": "binds"}
    ]},
    {"sequence": "GCAATTCGATCGTTGACATCTCGCGTGCTCGGTCAATCGGCAGATGCGGAGTGAAGTTCCAACGTTCGGC [ssDNA J2]", "values": [
      {"measurement": "binding result", "setting": "[1]; label: 5'-FAM, single-stranded DNA", "value": "binds"}
    ]},
    {"sequence": "GCAATTCGATCGTTGACATCTCGCGTGCTCGGTCAATCGGCAGATGCGGAGTGAAGTTCCAACGTTCGGC / CGGCTTGCAACCTTGAAGTGAGGCGTAGACGGCTATGACCGAGCACGCGAGATGTCAACGATCGAATTGC [splayed arms]", "values": [
      {"measurement": "binding result", "setting": "[1]; [3]", "value": "binds"}
    ]},
    {"sequence": "GCAATTCGATCGTTGACATCTCGCGTGCTCGGTCAATCGGCAGATGCGGAGTGAAGTTCCAACGTTCGGC / TGACCGAGCACGCGAGATGTCAACGATCGAATTGC / GCCGAACGTTGGAACTTCACTCCGCATCTGCCGATACTGGCTCGTGCGCTCTACAGTTGCTAGCTTAACG [3'-flap]", "values": [
      {"measurement": "binding result", "setting": "[1]; [3]", "value": "binds"}
    ]},
    {"sequence": "GCAATTCGATCGTTGACATCTCGCGTGCTCGGTCAATCGGCAGATGCGGAGTGAAGTTCCAACGTTCGGC (double strand) [duplex]", "values": [
      {"measurement": "binding result", "setting": "[1]; double strands less preferred than 5'-single strands, label: 5'-FAM on one strand", "value": "binds"}
    ]},
    {"sequence": "GCAATTCGATCGTTGACATCTCGCGTGCTCGGTCAATCGGCAGATGCGGAGTGAAGTTCCAACGTTCGGC / GCCGAACGTTGGAACTTCACTCCGCATCTGCCGAT / CGGCTTGCAACCTTGAAGTGAGGCGTAGACGGCTATGACCGAGCACGCGAGATGTCAACGATCGAATTGC [5'-flap]", "values": [
      {"measurement": "binding result", "setting": "[1]; [3]", "value": "binds"}
    ]},
    {"sequence": "GCAATTCGATCGTTGACATCTCGCGTGCTCGGTCAATCGGCAGATGCGGAGTGAAGTTCCAACGTTCGGC / GCCGAACGTTGGAACTTCACTCCGCATCTGCCGAT / TGACCGAGCACGCGAGATGTCAACGATCGAATTGC [nicked duplex]", "values": [
      {"measurement": "binding result", "setting": "[1]; label: 5'-FAM on one strand", "value": "binds"}
    ]},
    {"sequence": "GCAATTCGATCGTTGACATCTCGCGTGCTCGGTCAATCGGCAGATGCGGAGTGAAGTTCCAACGTTCGGC / GCCGAACGTTGGAACTTCACTCCGCATCTCGGTTGAATGGCAGCACGCGAGATGTCAACGATCGAATTGC [bubble]", "values": [
      {"measurement": "binding result", "setting": "[1]; [3]", "value": "binds"}
    ]},
    {"sequence": "GCAATTCGATCGTTGACATCTCGCGTGCTCGGTCAATCGGCAGATGCGGAGTGAAGTTCCAACGTTCGGC / TGACCGAGCACGCGAGATGTCAACGATCGAATTGC [3'-overhang]", "values": [
      {"measurement": "binding result", "setting": "[1]; label: 5'-FAM on one strand", "value": "binds"}
    ]}
  ]
}
